According to PubChem BioAssay AID328 (DTP/NCI, 2004):
The list is a part of this screen's results and no random one: it gathers tests that were run many times, whatever their T/C, doses with no T/C, and many T/C values between a quarter and a half above the control. Other doses and runs of a compound stand elsewhere. T/C is the treated group as % of the vehicle group. Some doses have a count of surviving animals in place of a T/C: the source holds a T/C of zero for them, seemingly a mark for toxic or unscored doses. Some doses without a T/C left all or most animals alive at the check, yet need not have been tolerated: survival well below the control is almost never listed, so the zero probably covers shortened survival too. Counts of survivors are from the toxicity check (mostly the fifth day) where no day follows; animals may have died later. Schedules are NCI's codes, read here as Q, the interval in days (D) or hours (H), X, the number of doses. Some entries were tested several times; their values stand side by side, smallest first. For survival time, the PubChem record calls one and a half times the control and up active, and a quarter to a half above the control has no call in these data; cut-offs in other NCI protocols can differ. Some T/C values are followed by the survivors on the day toxicity was checked, most often the fifth; where none is given, no animal had died by that day. Counts like (3×) stand for listed records that agree.

System: BDF1 mice, P388 leukemia ip, median survival T/C
Test: NCI In Vivo Anticancer Drug Screen. Data for tumor model P388 Leukemia (intraperitoneal) in B6D2F1 (BDF1) mice
Settings: T/C endpoint: median survival time, vehicle: Klucel (hydroxypropylcellulose) (HPC), higher T/C = longer survival
Protocol: The antitumor activity of compounds was measured in mice bearing transplantable tumors. Survival or tumor size were measured and the results are expressed as the measurement made in the treated group (T) divided by the measurement made in the vehicle treated control group (C). The tumor model used in this assay is P388 Leukemia (intraperitoneal) in B6D2F1 (BDF1) mice

[1] = dose: 50.0 mg/kg/injection, schedule: Q01DX009 (ip)
[2] = dose: 100.0 mg/kg/injection, schedule: Q01DX009 (ip)

**Q.** How did the T/C (dose: 50.0 mg/kg/injection, schedule: Q01DX001 (ip), evaluated on day 30) turn out when CN(Cc1cnc2nc(N)nc(N)c2n1)c1c(Cl)cc(C(=O)NC(CCC(=O)O)C(=O)O)cc1Cl (stereo not drawn) was run?
**A.** 95, 110, 111, 118, 120, 122 (2×), 123, 124, 125 (2×), 128 (2×), 129, 130, 132, 133, 135, 136, 138, 145, 147 (2×), 151, 152, 153, 159, 160, 167 % of control

**Q.** What about the T/C (dose: 50.0 mg/kg/injection, schedule: Q01DX001 (ip), evaluated on day 35) of the same compound?
**A.** 129 and 133 % of control

**Q.** And the survivor count (dose: 50.0 mg/kg/injection, schedule: Q01DX001 (ip))?
**A.** 3 of 3

**Q.** And the T/C (dose: 50.0 mg/kg/injection, schedule: Q01DX005 (ip), evaluated on day 30)?
**A.** 106, 113, 135, 144, 150, 151, 153, 154, 157, 162, 164, 166, 170, 174 (2×), 177, 183 (2×), 188, 194, 195, 196, 205, 206, 207, 211, 221, 228, 229, 233, 241, 250, 254, 256 % of control

**Q.** And the T/C (dose: 50.0 mg/kg/injection, schedule: Q01DX005 (ip), evaluated on day 35)?
**A.** 173 % of control

**Q.** What about the T/C [1] of the same compound?
**A.** 100, 106 (2×), 132, 135, 141, 146, 175, 180, 184, 186, 193, 195, 200, 204, 207, 210, 223, 225 (2×), 226, 232, 239, 241, 250, 253, 255, 258, 263 (2×), 264, 267 (2×), 283 % of control

**Q.** What about the survivor count [1] of the same compound?
**A.** 3 of 6

**Q.** What about the T/C (dose: 50.0 mg/kg/injection, schedule: Q04DX002 (ip), evaluated on day 30) of the same compound?
**A.** 111, 121, 125, 126, 127, 128, 129, 130 (2×), 132, 136, 140, 141, 142, 144, 145, 146, 147, 149, 150, 153, 154, 157, 159 (2×), 160, 163 (2×), 164, 173, 188, 291 % of control

**Q.** What about the T/C (dose: 50.0 mg/kg/injection, schedule: Q04DX002 (ip), evaluated on day 35) of the same compound?
**A.** 155 % of control

**Q.** And the T/C (dose: 50.0 mg/kg/injection, schedule: Q04DX003 (ip), evaluated on day 30)?
**A.** 117 (2×), 126, 128, 129, 136 (2×), 140, 141, 144 (3×), 148, 151 (2×), 152, 156 (2×), 160, 162, 163, 164, 170, 172, 175 (3×), 180, 184 (2×), 194, 197 [2 of 3 alive], 202 % of control

**Q.** What about the T/C (dose: 50.0 mg/kg/injection, schedule: Q04DX003 (ip), evaluated on day 35) of the same compound?
**A.** 165 and 220 % of control

**Q.** And the survivor count (dose: 50.0 mg/kg/injection, schedule: Q04DX003 (ip))?
**A.** 2 of 3

**Q.** And the T/C (dose: 100.0 mg/kg/injection, schedule: Q01DX001 (ip), evaluated on day 30)?
**A.** 100, 104, 114, 117, 118 (2×), 124, 133, 134, 136 (2×), 138 (2×), 140 (2×), 142, 145, 151 (2×), 154, 155, 156, 158, 163, 167, 172, 176 (2×), 188 % of control

**Q.** And the T/C (dose: 100.0 mg/kg/injection, schedule: Q01DX001 (ip), evaluated on day 35)?
**A.** 125 and 155 % of control

**Q.** What about the survivor count (dose: 100.0 mg/kg/injection, schedule: Q01DX001 (ip)) of the same compound?
**A.** 3 of 3

**Q.** What about the T/C (dose: 100.0 mg/kg/injection, schedule: Q01DX005 (ip), evaluated on day 30) of the same compound?
**A.** 123, 151, 154, 157, 160, 162 [4 of 6 alive], 176 (2×), 176 [2 of 3 alive], 184, 186, 187, 190 [5 of 6 alive], 194, 200, 201, 213, 215, 217, 219, 227, 230, 231, 236, 240, 241, 242 [5 of 6 alive], 247, 254 [5 of 6 alive], 277 % of control

**Q.** And the T/C (dose: 100.0 mg/kg/injection, schedule: Q01DX005 (ip), evaluated on day 35)?
**A.** 182 % of control

**Q.** And the survivor count (dose: 100.0 mg/kg/injection, schedule: Q01DX005 (ip))?
**A.** 5 of 6 and 3 of 3

**Q.** And the T/C [2]?
**A.** 87, 88, 89, 91, 92, 108, 109, 112, 115, 116, 120, 140, 186, 200, 203, 209, 222, 225, 226, 230, 241 (2×), 243 (2×), 255, 264, 277 % of control

**Q.** What about the survivor count [2] of the same compound?
**A.** 4 of 6, 3 of 3, 6 of 6

**Q.** And the T/C (dose: 100.0 mg/kg/injection, schedule: Q04DX002 (ip), evaluated on day 30)?
**A.** 116, 129, 130, 134, 139 (2×), 147, 151, 153, 154, 155, 156, 158, 160, 163 (2×), 166, 168 (2×), 172, 174, 177, 179, 182, 186, 188, 193 (2×), 200, 205, 208, 211, 228 % of control

**Q.** And the T/C (dose: 100.0 mg/kg/injection, schedule: Q04DX002 (ip), evaluated on day 35)?
**A.** 163 % of control

**Q.** What about the T/C (dose: 100.0 mg/kg/injection, schedule: Q04DX003 (ip), evaluated on day 30) of the same compound?
**A.** 109, 119, 138, 146, 149, 154 [5 of 6 alive], 156 (3×), 160, 161 (2×), 161 [5 of 6 alive], 163, 169 [2 of 3 alive], 172 (2×), 173, 174, 180, 182, 184, 190, 191, 194, 197 (3×), 204, 211, 216 [2 of 2 alive], 227, 232, 247 % of control
